Library screen at single concentrations

Chains of the proteins cited; added tags and fusions are not shown. Residues count along the entry.
UniProt P9WPC5, whole entry: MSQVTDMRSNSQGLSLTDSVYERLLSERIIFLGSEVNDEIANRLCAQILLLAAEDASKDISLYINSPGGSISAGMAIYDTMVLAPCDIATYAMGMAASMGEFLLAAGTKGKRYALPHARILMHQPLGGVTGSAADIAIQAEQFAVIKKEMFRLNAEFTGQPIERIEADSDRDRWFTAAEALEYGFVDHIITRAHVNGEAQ
UniProt P9WPC3, whole entry partner: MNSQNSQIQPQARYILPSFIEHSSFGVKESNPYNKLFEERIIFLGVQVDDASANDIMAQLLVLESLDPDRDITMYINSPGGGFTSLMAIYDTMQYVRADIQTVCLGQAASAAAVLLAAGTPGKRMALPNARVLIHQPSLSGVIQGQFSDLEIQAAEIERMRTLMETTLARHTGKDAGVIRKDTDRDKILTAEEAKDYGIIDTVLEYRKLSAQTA
UniProt P9WFT3, whole entry: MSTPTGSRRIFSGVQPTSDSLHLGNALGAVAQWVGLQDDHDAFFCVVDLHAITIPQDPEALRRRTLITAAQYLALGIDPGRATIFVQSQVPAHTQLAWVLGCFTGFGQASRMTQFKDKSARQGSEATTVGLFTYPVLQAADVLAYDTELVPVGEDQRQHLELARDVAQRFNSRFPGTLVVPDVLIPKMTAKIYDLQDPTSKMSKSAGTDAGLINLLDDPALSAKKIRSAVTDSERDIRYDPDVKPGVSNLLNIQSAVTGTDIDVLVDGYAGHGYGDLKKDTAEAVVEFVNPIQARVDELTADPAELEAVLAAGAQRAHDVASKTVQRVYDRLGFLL
UniProt I6X8D2, whole entry: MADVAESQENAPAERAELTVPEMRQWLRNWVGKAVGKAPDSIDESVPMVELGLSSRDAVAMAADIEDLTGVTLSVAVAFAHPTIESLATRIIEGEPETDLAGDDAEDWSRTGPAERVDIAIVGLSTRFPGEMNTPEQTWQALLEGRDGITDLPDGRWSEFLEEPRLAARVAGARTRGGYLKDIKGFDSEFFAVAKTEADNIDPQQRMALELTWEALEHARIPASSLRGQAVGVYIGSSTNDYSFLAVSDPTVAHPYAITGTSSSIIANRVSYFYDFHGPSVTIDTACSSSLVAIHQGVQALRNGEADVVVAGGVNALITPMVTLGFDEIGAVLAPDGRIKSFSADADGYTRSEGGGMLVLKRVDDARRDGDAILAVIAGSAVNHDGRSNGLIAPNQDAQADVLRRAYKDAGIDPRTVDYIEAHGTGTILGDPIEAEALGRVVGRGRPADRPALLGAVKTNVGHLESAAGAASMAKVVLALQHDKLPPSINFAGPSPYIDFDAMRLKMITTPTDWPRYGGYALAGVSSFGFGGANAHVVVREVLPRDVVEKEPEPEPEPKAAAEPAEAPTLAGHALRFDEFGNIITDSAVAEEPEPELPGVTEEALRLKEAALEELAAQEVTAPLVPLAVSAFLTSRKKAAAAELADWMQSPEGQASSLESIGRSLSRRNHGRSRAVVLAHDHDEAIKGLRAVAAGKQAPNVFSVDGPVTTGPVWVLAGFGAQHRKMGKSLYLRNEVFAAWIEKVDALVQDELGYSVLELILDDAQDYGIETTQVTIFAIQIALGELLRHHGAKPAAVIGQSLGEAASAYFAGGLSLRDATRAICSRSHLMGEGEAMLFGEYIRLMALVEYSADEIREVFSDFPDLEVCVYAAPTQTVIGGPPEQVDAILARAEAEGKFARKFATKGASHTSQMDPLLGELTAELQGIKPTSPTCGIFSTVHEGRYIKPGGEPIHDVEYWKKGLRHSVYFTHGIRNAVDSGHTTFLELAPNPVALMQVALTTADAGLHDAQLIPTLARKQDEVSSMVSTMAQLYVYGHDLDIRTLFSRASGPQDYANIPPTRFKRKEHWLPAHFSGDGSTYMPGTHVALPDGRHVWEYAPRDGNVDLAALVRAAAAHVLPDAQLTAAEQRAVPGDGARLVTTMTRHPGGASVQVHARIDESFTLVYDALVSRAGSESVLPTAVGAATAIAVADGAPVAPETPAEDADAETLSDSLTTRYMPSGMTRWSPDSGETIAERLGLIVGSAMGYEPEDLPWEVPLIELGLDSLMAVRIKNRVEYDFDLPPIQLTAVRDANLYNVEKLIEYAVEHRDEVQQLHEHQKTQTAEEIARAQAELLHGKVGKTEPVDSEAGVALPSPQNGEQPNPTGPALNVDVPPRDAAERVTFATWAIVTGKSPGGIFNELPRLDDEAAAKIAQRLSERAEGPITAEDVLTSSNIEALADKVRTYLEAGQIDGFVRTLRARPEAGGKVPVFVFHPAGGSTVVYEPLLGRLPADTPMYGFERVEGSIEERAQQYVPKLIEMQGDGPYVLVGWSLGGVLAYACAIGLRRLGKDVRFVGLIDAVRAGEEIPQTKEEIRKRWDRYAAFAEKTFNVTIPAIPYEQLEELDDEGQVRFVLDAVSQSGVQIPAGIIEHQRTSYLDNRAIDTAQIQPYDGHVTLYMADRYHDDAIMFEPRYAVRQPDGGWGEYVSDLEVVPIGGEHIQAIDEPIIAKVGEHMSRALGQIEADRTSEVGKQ
UniProt Q8IDJ8, 1-583: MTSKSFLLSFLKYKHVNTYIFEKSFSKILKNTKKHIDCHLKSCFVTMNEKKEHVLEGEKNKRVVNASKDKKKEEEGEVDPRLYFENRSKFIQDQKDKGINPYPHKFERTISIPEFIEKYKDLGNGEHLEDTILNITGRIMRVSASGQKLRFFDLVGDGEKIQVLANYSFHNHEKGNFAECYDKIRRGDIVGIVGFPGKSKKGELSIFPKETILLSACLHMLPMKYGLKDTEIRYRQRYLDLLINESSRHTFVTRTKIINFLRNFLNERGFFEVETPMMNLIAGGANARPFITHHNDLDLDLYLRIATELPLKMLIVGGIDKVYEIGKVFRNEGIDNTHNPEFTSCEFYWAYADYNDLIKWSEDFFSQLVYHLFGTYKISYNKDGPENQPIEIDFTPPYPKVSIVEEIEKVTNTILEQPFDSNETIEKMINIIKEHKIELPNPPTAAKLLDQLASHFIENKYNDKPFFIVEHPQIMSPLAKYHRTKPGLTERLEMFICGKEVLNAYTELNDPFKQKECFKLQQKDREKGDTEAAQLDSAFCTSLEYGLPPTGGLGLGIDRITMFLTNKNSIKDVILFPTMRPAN

ClpP1P2: 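ClpP1P2, Mycobacterium tuberculosis (UniProt P9WPC5 and UniProt P9WPC3). Protease assay of ClpP1P2, read by the AMC dye that it sets free. Concentration: 50 µM. Higher reads as stronger inhibition, judged from the few compounds that gave an IC50. Most other retested compounds had strongly negative values. Size under these conditions: about 69,000 compounds, about 10 of them at 50% or above in at least one test.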
MtTrpRS: 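Tryptophan-tRNA ligase, Mycobacterium tuberculosis (UniProt P9WFT3). Enzyme assay of tryptophanyl-tRNA synthetase; the read-out is not stated. Compounds at 10 µM. Direction is not recorded; retested compounds ran higher, which suggests that high means inhibition. Size under these conditions: about 65,000 compounds, about 64 of them at 50% or above in at least one test.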
Pks13 thioesterase: 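Polyketide synthase Pks13, Mycobacterium tuberculosis (UniProt I6X8D2). Enzyme assay of the thioesterase domain of polyketide synthase 13; the read-out is not stated. Compounds at 30 µM. Higher reads as stronger inhibition (inferred from which compounds were picked for retests). About 67,000 compounds were tested under these conditions; 0.46% (about 300) showed 50% or more at least once.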
PfKRS1: 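Lysine-tRNA ligase, Plasmodium falciparum 3D7 (UniProt Q8IDJ8). Enzyme assay of the cytosolic lysyl-tRNA synthetase in 384-well plates, read by luminescence. Compounds at 30 µM. Higher reads as stronger inhibition, judged from the few compounds that gave an IC50. Of about 69,000 compounds tested this way, about 49 (0.071%) reached 50% or more in at least one test.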

The filed quantity is “Percent Effect” (%). The controls that fix the scale are not given in the record; negative values are as filed. The compounds are a random part of those screened.

{"smiles": "O=C(NCCN1CCOCC1)c1cc(Cl)c2c(c1)OCCCO2", "ClpP1P2": 8.665, "MtTrpRS": -3.078, "Pks13 thioesterase": -38.54, "PfKRS1": 4.216}
{"smiles": "COCCN(Cc1coc(-c2cccc(Cl)c2)n1)C1CC1", "ClpP1P2": -3.952, "MtTrpRS": 0.5435, "Pks13 thioesterase": -1.518, "PfKRS1": 7.308}
{"smiles": "O=C(NCCCn1cccn1)C1(c2cccc(Cl)c2)CC1", "ClpP1P2": -2.312, "MtTrpRS": 2.956, "Pks13 thioesterase": 46.71, "PfKRS1": 0.6178}
{"smiles": "CN([C@@H]1CC[C@@H](N2CCCC2)[C@@H]1O)S(=O)(=O)c1ccccc1", "ClpP1P2": -10.09, "MtTrpRS": 23.3, "Pks13 thioesterase": -3.581, "PfKRS1": -0.1187}
{"smiles": "COCCn1cnc2ccc(NC(=O)c3ccc(OC)cc3)cc2c1=O", "ClpP1P2": -1.703, "MtTrpRS": -0.6431, "Pks13 thioesterase": -3.925, "PfKRS1": 7.404}
{"smiles": "COC(=O)CCNC(=O)c1nnn(-c2ccc(C)cc2)c1C1CC1", "ClpP1P2": -23.07, "MtTrpRS": 23.7, "PfKRS1": -1.465}
{"smiles": "COc1ccnc(NC(=O)c2cnccn2)c1", "ClpP1P2": 4.72, "MtTrpRS": -23.27, "Pks13 thioesterase": -11.33, "PfKRS1": 2.913}
{"smiles": "COc1ccccc1OCCc1cc(C2CCNC2)n[nH]1", "stereo": "stereo unspecified", "ClpP1P2": -10.37, "MtTrpRS": -4.464, "Pks13 thioesterase": 1.977, "PfKRS1": 2.588}
{"smiles": "Cc1noc(C)c1CN1CCOCC12CCN(c1ncccn1)CC2", "ClpP1P2": -4.295, "Pks13 thioesterase": -1.416, "PfKRS1": 3.615}
{"smiles": "CN(Cc1ccco1)C(=O)C1CSCN1C(=O)c1cccs1", "stereo": "stereo unspecified", "ClpP1P2": -0.736, "MtTrpRS": 26.11, "Pks13 thioesterase": -44.11, "PfKRS1": 0.5671}
{"smiles": "CCO[C@@H]1CC[C@H]2[C@H]1OCCN2S(=O)(=O)C1CC1", "ClpP1P2": -21.05, "MtTrpRS": -0.7979, "Pks13 thioesterase": -19.12, "PfKRS1": 4.482}
{"smiles": "COCCNC(=O)C(C)n1nc(-c2ccc(C)o2)cc(N)c1=O", "stereo": "stereo unspecified", "ClpP1P2": 9.922, "MtTrpRS": 11.57, "Pks13 thioesterase": -9.293, "PfKRS1": -4.748}
{"smiles": "COc1cccc(C2=CCN(CCN3CCOC3=O)CC2)c1", "ClpP1P2": -6.105, "MtTrpRS": 9.103, "Pks13 thioesterase": -11.31, "PfKRS1": -0.1261}
{"smiles": "CC(C)c1nccc(-c2nccn2CCS(C)(=O)=O)n1", "ClpP1P2": 0.09621, "MtTrpRS": 2.309, "Pks13 thioesterase": -6.636, "PfKRS1": 2.49}
{"smiles": "COCc1cnc2n1CCN(C(=O)C1=CCCC1)C2C", "stereo": "stereo unspecified", "ClpP1P2": -23.1, "MtTrpRS": -0.2766, "Pks13 thioesterase": 2.429, "PfKRS1": -1.199}
{"smiles": "CN(C)S(=O)(=O)c1ccc(CN2CCCC2c2ccccc2)o1", "stereo": "stereo unspecified", "ClpP1P2": 3.81, "MtTrpRS": 1.657, "Pks13 thioesterase": -9.467, "PfKRS1": -0.9096}
{"smiles": "c1cnc(N2C[C@H]3CCN(CCN4CCCC4)C[C@H]3C2)cn1", "ClpP1P2": -7.415, "Pks13 thioesterase": -4.603, "PfKRS1": 3.255}
{"smiles": "F[C@@H]1CN(CC2CC2)C[C@@H]1OCc1nc2cnccc2[nH]1", "ClpP1P2": 0.1582, "MtTrpRS": -1.144, "Pks13 thioesterase": -9.06, "PfKRS1": 0.6687}
{"smiles": "CNS(=O)(=O)CC(=O)N1CCC(c2cc3ccccc3[nH]2)CC1", "ClpP1P2": -6.263, "MtTrpRS": 0.2721, "Pks13 thioesterase": -15.61, "PfKRS1": 6.947}
{"smiles": "COc1ccc(C2=NOC(C(=O)N3CCCc4ccccc43)C2)cc1", "stereo": "stereo unspecified", "ClpP1P2": 2.929, "MtTrpRS": -4.821, "Pks13 thioesterase": -7.634, "PfKRS1": -0.2987}
{"smiles": "CNc1cncc(C2CCN(S(C)(=O)=O)CC2)n1", "ClpP1P2": 0.4707, "MtTrpRS": -6.657, "Pks13 thioesterase": -64.98, "PfKRS1": 0.1717}
{"smiles": "Fc1cccc(N2CCOC3(CCCN(c4nncs4)C3)C2)c1", "stereo": "stereo unspecified", "ClpP1P2": 2.19, "MtTrpRS": -1.355, "Pks13 thioesterase": -34.67, "PfKRS1": -1.032}
{"smiles": "CC(C)N1CC[C@@H]2[C@H](COCC3CC3)CN(C)C(=O)[C@@H]2CC1", "ClpP1P2": -2.111, "MtTrpRS": 11.34, "Pks13 thioesterase": 0.591, "PfKRS1": -1.109}
{"smiles": "Cc1occc1-c1nc(NC2CCCC2)ncc1-c1ccccn1", "ClpP1P2": -13.32, "Pks13 thioesterase": 13.15, "PfKRS1": -0.06205}
{"smiles": "Cc1ccc(-c2n[nH]cc2CNCC2CCN(CC(C)O)CC2)cc1", "stereo": "stereo unspecified", "ClpP1P2": 1.533, "MtTrpRS": 0.3313, "Pks13 thioesterase": -2.267, "PfKRS1": 0.04133}
{"smiles": "COCCNc1nnc(-c2cnc(C)cn2)s1", "ClpP1P2": 12.35, "MtTrpRS": 4.137, "Pks13 thioesterase": 24.69, "PfKRS1": 0.656}

2 of the entries, repeated:

| SMILES | ClpP1P2 | MtTrpRS | Pks13 thioesterase | PfKRS1 |
|---|---|---|---|---|
| `COCCN(Cc1coc(-c2cccc(Cl)c2)n1)C1CC1` | -3.952% | 0.5435% | -1.518% | 7.308% |
| `Fc1cccc(N2CCOC3(CCCN(c4nncs4)C3)C2)c1` (stereo unspecified) | 2.19% | -1.355% | -34.67% | -1.032% |

From ChEMBL document CHEMBL3988442, “University of Dundee, Small-Polar-MMV Screening Library” (2021).